Experimental data taken from article PMC3105080.
Results are given in words; binding and its absence hold for the method and conditions named. In cells and extracts the contact can be indirect. Some entries that bind do so weakly or less than the wild type. Sequences can lack the tags named with a protein.

T1: otoconin-90 (Oc90), full-length, FLAG-tagged (mouse) (UniProt Q9Z0L3)
T1 sequence: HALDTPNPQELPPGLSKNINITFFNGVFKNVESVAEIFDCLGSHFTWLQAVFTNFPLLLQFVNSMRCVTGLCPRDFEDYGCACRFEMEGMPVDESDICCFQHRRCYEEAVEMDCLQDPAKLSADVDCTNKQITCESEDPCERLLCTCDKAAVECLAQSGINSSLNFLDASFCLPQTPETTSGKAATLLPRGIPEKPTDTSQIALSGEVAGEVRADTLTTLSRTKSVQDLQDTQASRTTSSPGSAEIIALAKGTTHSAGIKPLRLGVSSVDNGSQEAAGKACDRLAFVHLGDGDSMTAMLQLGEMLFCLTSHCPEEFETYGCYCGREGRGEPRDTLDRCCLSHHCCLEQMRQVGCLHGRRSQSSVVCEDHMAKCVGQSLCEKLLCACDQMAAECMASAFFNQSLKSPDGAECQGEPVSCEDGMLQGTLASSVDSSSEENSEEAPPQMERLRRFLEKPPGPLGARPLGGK


Molecular target: T1, otoconin-90 (Oc90), full-length, FLAG-tagged (mouse)
Assay: co-IP; HEK293 cells co-transfected with Oc90-FLAG and otolin or its domains; lysed in hypotonic buffer (10 mM Tris-HCl pH 7.5, 10 mM NaCl, 2 mM EDTA, 0.5% Triton-X-100), then 150 mM NaCl; anti-FLAG M2 beads 6 h at 4°C, washed 3 times with TBS; Western blot with otolin and Oc90 antibodies

| binding | Binder |
| --- | --- |
| binds | otolin-TH domain construct (residues 1-342) (domain or fragment, UniProt Q4ZJM7 24-342) KTTPYTKFTKKSEGKEMLKGLKPSSGFFLDGEETVHTETAAMAEPTTGSPALAMAESTAGPSASATTRLLPFESFSLDTTGFVLNCCHCCSFVTGQKGEPGKMGKQGPKGETGDTGSPGHPGTTGPQGPKGQKGEKGLKGDRGDQGAGGIPGYPGKPGEQGALGPKGDKGTIGPAGTKGQKGSKGELCGNGTKGEKGDPGASGAHGFIGEPGAKGEKGGVGEKGYRGDLGERGEKGQKGEKGMEGEKGSRGDVGSEGKRGSDGLPGLRGDSGPKGEKGEIGSPGFTGPAGPKGELGSKGVRGPTGKKGSRGVKGSKGEA |
| binds | otolin-C1q domain construct (residues 1-60 fused with residues 343-482) (domain or fragment, UniProt Q4ZJM7 24-60; Q4ZJM7 343-482) KTTPYTKFTKKSEGKEMLKGLKPSSGFFLDGEETVHTTQVPQSAFSALLSKPFPPPNVPIKFDKILSNDQGDYSPVTGKFNCSVPGTYIFSYHVTVRGRPARISLVARNRKQFKSRETLYGQQVDQASLLLILKLSAGDQVWLEVSKDWNGLYVGPEDDSIFSGFLLYPEETFSKSP |
